Like-named read-outs stand apart in the source and are kept apart here. No constants are given. Whether binding was seen depends on the method and setting. Binding seen in cells or lysates may run through a third protein. A yes stands for co-enrichment or nearness to the bait. Other partners may have been found.
Legend:
[1] = molecular target: GST-Bsd (Back seat driver, CG8878) (Drosophila) (UniProt Q7KMI3); assay: affinity purification with mass spectrometry; GST-Bsd (or GST) bound to glutathione sepharose beads, incubated with 12-24 h embryo lysate at 4 °C for 4 h, washed three times, LC-MS; only the target purified
[2] = molecular target: GST-Bsd (Back seat driver, CG8878) (Drosophila) (UniProt Q7KMI3); assay: as above; remark: listed apart in the source

Chains of the proteins cited; added tags and fusions are not shown.
UniProt Q9VK45: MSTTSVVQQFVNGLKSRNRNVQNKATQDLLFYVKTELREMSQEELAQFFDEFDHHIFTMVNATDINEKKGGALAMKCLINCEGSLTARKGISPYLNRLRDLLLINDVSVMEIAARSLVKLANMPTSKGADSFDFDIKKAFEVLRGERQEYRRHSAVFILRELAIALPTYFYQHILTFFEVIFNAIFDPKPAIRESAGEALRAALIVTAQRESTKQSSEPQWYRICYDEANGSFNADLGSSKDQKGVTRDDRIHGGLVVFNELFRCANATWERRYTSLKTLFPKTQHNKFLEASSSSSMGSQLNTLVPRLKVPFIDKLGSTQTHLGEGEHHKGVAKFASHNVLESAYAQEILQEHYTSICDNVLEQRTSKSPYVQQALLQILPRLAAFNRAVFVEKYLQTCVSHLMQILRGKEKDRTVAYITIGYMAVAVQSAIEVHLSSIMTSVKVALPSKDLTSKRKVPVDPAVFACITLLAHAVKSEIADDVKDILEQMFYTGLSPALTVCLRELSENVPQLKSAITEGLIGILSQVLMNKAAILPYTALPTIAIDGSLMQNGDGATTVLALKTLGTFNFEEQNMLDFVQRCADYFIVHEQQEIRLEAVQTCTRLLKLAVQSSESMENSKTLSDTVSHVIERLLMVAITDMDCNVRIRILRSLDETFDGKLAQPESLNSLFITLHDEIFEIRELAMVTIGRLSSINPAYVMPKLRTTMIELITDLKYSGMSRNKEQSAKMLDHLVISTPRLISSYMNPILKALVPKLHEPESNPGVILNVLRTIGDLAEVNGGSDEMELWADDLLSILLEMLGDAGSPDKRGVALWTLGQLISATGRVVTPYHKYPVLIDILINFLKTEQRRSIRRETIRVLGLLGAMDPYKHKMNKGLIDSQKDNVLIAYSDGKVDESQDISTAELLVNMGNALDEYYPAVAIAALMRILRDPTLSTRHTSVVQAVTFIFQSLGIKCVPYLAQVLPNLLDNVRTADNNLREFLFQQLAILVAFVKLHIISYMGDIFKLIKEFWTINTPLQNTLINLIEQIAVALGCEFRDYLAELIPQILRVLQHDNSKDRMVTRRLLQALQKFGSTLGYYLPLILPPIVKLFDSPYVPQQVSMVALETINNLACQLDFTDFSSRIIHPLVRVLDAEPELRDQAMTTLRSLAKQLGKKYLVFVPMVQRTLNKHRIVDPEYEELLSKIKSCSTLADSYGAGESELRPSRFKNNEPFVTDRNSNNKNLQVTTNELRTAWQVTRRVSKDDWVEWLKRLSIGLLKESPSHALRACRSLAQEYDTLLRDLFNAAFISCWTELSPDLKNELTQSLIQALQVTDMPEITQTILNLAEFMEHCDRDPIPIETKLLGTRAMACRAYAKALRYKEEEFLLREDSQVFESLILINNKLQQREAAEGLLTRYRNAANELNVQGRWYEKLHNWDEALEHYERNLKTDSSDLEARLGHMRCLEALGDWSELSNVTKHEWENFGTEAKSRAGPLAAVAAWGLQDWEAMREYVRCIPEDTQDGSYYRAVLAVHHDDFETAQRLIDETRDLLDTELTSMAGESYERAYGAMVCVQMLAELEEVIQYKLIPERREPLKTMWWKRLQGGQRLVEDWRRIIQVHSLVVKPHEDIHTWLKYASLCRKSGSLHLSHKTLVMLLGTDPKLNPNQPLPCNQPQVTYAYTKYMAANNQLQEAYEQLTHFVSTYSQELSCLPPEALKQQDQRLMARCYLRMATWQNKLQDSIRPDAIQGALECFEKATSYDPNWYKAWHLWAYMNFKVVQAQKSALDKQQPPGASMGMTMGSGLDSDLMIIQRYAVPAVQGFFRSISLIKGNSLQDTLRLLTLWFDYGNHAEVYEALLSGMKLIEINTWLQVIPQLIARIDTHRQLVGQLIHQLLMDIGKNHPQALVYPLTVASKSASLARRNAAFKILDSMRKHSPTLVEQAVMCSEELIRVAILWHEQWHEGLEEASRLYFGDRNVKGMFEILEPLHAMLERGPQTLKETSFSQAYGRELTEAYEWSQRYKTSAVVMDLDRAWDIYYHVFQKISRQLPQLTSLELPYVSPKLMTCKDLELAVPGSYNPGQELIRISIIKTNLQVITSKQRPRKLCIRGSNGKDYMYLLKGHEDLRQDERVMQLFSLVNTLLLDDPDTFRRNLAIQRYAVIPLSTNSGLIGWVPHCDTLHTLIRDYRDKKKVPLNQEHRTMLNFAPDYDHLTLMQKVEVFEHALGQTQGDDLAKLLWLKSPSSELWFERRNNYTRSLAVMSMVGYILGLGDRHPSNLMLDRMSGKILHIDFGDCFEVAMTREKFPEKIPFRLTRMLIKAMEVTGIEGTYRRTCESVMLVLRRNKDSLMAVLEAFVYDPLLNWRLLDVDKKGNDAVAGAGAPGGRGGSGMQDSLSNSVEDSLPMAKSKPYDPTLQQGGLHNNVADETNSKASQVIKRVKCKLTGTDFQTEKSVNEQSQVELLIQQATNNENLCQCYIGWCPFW

Row | Molecule | binding [1] | binding [2]
1 | Target of Rapamycin (endogenous, embryo lysate) (from UniProt Q9VK45 1-2470) (enzyme) | binds | 
2 | Yp3 (endogenous, embryo lysate) (protein, UniProt P06607 20-420) SKDASNDRLKPTKWLTATELENVPSLNDITWERLENQPLEQGAKVIEKIYHVGQIKHDLTPSFVPSPSNVPVWIIKSNGQKVECKLNNYVETAKAQPGFGEDEVTIVLTGLPKTSPAQQKAMRRLIQAYVQKYNLQQLQKNAQEQQQQLKSSDYDYTSSEEAADQWKSAKAASGDLIIIDLGSTLTNFKRYAMLDVLNTGAMIGQTLIDLTNKGVPQEIIHLIGQGISAHVAGAAGNKYTAQTGHKLRRITGLDPAKVLSKRPQILGGLSRGDADFVDAIHTSTFAMGTPIRCGDVDFYPNGPSTGVPGSENVIEAVARATRYFAESVRPGSERNFPAVPANSLKQYKEQDGFGKRAYMGLQIDYDLRGDYILEVNAKSPFGQRSPAHKQAAYHGMHHAQN |  | binds
3 | Jaguar (Jar, Myosin VI; endogenous, embryo lysate) (protein, UniProt Q01989 1-1253) MLEDTQLVWVRDAAEGYIQGRITEIGAKEFEVTPTDRKYPKRTCHFDDIHSSCDGPQDHDDNCELMLLNEATFLDNLKTRYYKDKIYTYVANILIAVNPYREIKELYAPDTIKKYNGRSLGELPPHVFAIADKAIRDMRVYKLSQSIIVSGESGAGKTESTKYLLKYLCYSHDSAGPIETKILDANPVLEAFGNAKTTRNNNSSRFGKFIEVHYDAKCQVVGGYISHYLLEKSRICTQSAEERNYHVFYMLLAGAPQQLRDKLSLGKPDDYRYLSGCTQYFANAKTEQLIPGSQKSKNHQQKGPLKDPIIDDYQHFHNLDKALGRLGLSDTEKLGIYSLVAAVLHLGNIAFEEIPDDVRGGCQVSEASEQSLTITSGLLGVDQTELRTALVSRVMQSKGGGFKGTVIMVPLKIYEASNARDALAKAIYSRLFDRIVGLINQSIPFQASNFYIGVLDIAGFEYFTVNSFEQFCINYCNEKLQKFFNDNILKNEQELYKREGLNVPEITFTDNQDIIELIEAKSNGIFTLLDEESKLPKPSYSHFTAEVHKSWANHYRLGLPRSSRLKAHRTLRDEEGFLVRHFAGAVCYNTEQFIEKNNDALHASLEGLVQECDNPLLQTLFPSGSSTSVRGKLNFISVGSKFKTQLGELMEKLEQNGTNFIRCIKPNSKMIDRQFEGSLALAQLKCSGTISVLELMEHGYPSRVLFADLYSMYKSVLPPELVSLPARTFCEAMFQSLNLSAKDFKFGITKVFFRPGKFVEFDRIMRSDPENMLAIVAKVKKWLIRSRWVKSALGALCVIKLRNRIIYRNKCVLIAQRIARGFLARKQHRPRYQGIGKINKIRTNTLKTIEIASGLKMGREEIISGVNDIYRQIDDAIKKIKMNPRITQREMDSMYTVVMANMNKLTVDLNTKLKEQQQAEEQERLRKIQEALEAERAAKEAEEQRQREEIENKRLKAEMETRRKAAEAQRLRQEEEDRRAALALQEQLEKEAKDDAKYRQQLEQERRDHELALRLANESNGQVEDSPPVIRNGVNDASPMGPNKLIRSENVRAQQQALGKQKYDLSKWKYSELRDAINTSCDIELLEACRQEFHRRLKVYHAWKAKNRKRTTMDENERAPRSVMEAAFKQPPLVQPIQEIVTAQHRYFRIPFMRANAPDNTKRGLWYAHFDGQWIARQMELHADKPPILLVAGTDDMQMCELSLEETGLTRKRGAEILEHEFNREWERNGGKAYKNLGAAKPNGPAAAMQKQQ |  | binds

Reference: publication PMC8828718
